Some entries share one result that the patent states for a list of compounds.
Biological target: α2-ARs (Homo sapiens, UniProt P08913)
Experiment: [3H]RX821002 competition binding in human brain PFC membranes
Settings: [3H]RX821002 1 nM, human postmortem PFC membranes, 25° C. 30 min

Chains of the proteins cited; added tags and fusions are not shown.
UniProt P08913, whole entry: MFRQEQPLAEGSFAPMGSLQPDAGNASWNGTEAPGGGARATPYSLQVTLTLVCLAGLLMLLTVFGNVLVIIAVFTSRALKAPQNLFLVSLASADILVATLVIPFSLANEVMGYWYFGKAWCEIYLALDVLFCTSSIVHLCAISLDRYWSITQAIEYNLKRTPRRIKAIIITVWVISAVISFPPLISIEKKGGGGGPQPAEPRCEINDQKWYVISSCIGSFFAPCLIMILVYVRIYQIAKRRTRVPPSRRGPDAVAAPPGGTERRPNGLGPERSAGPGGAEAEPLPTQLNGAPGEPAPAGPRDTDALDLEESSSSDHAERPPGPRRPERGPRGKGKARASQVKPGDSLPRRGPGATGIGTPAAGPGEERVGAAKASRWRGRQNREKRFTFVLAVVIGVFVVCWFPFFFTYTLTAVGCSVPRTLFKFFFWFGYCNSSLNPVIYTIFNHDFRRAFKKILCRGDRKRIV

CNc1ccc(NC2=NCCN2)cc1 [Compound 4b, N-imidazolidin-2-ylidene-N′-methyl-benzene-1,4-diamine]
pKi: > 7

From patent publication US20100160332A1, “a2-Adrenoceptor Ligands” (The Provost, Fellows and Scholars of the College of the …, priority 2008, published 2010)
